From publication PMC10333572
Results are given in words; binding and its absence hold for the method and conditions named. In cells and extracts the contact can be indirect. Some entries that bind do so weakly or less than the wild type. Tags and fused reporters may be left off the sequences shown.

How the values were obtained:
[1] = molecular target: T1, extended pseudosubstrate peptide Biotin-Ahx-…-CONH2 with Y/E at Y14 (human); assay: pull-down; biotin-labeled extended PS peptides as bait; Myc-tagged aPKCι kinase domain fished from cell lysates; detected by blot; only the target purified
T1 sequence (peptide, N-terminal Biotin-Ahx; C-terminal amide (CONH2)): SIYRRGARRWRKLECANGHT

[2] = molecular target: T2, extended pseudosubstrate peptide Biotin-Ahx-…-CONH2 with Y/F at Y14 (human); assay: as above
T2 sequence (peptide, N-terminal Biotin-Ahx; C-terminal amide (CONH2)): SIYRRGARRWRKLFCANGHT

B1: Myc-tagged aPKCι kinase domain (domain or fragment, UniProt P41743 254-522)
chain: FDLLRVIGRGSYAKVLLVRLKKTDRIYAMKVVKKELVNDDEDIDWVQTEKHVFEQASNHPFLVGLHSCFQTESRLFFVIEYVNGGDLMFHMQRQRKLPEEHARFYSAEISLALNYLHERGIIYRDLKLDNVLLDSEGHIKLTDYGMCKEGLRPGDTTSTFCGTPNYIAPEILRGEDYGFSVDWWALGVLMFEMMAGRSPFDIVGSSDNPDQNTEDYLFQVILEKQIRIPRSLSVKAASVLKSFLNKDPKERLGCHPQTGFADIQGHPFF
For B1, the binding [1] was “no binding” and the binding [2] was “binds”.
